In this experiment the target is mouse B7-H4 (mouse) (UniProt Q7TSP5). The experiment can be described thus: FACS, hybridoma clone on stable cell line expressing recombinant mouse B7-H4.

By UniProt entry, the sequences of proteins in these tests, tags left out. Where a name states a change or a piece, a line headed by the entry shows the natural chain unless it says otherwise.
UniProt Q7TSP5: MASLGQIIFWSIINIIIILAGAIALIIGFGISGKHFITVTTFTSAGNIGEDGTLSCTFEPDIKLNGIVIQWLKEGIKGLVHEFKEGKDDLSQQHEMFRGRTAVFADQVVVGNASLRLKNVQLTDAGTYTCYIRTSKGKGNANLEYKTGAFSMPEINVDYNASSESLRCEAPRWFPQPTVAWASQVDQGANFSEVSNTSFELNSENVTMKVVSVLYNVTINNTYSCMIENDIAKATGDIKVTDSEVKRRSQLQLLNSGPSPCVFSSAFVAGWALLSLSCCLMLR

No constants are given. Whether binding was seen depends on the method and setting. Some binding calls cover weakened binding; strength is not graded here.

B1: ch9B9 (antibody, human IgG1, V domains shown)
VH: QVQLQQSGAELMKPGASVKMSCKATGYTFSSYWIEWVKQRPGHGLEWIGEILPGTSITTYNAKFKVKATFTADTSSNTAYMQLSSLTSEDSAVYFCARYYFGSSSFYFDYWGQGTSLTVSS
VL: QAVVTQESALTTSPGDTVTLTCRSSTGAVTTSNYANWVQEKPDHLFTGLIGGTNNRVPGVPARFSGSLIGDKAALTITGAQTEDEAMYFCALWYNNHWVFGGGTKLE
notes: also called chimeric 9B9
As to B1, the binding result is recorded as “binds”.

B2: ch22C10 (antibody, human IgG1, V domains shown)
VH: QVQLQQPGAELVKPGTSVKLSCKASGYTFTNFWIHWVIQRPGQGLEWIGEIDPSDSYTNYNQKFKGKATLTVDKSSNTAYMQLSSLTSEDSAVYYCSREITTVDYWGQGTTLTVSS
VL: QIVLTQSPTIMSASPGEKVTLTCSATSSISYMHWYQQKPGTSPKGWIYDTSKLAHGVPARFSGSGSGTSYSLTISSMEAEDAATYYCHQRRSYPFTFGSGTKLEIK
notes: also called chimeric 22C10; ch2210
For the molecule B2, the binding entry is “binds”.

B3: murine 1D11 (antibody, V domains shown)
VH: QVQLQQSGAELVRPGTSVKMSCKASGYTFTSYWIGWAKQRPGHGFEWIGDIYPGGGYTNYNEKFKGKATLTADKSSSTAYMQFSSLTSEDSAIYYCARLDGSSYRGAMDSWGQGTSITVSS
VL: DIQMTQSPSSLSASLGGKVTITCKASQGFNKYVAWYQHKPGQCPRLLIHYTSTLQPGIPARFSGSGSGRDYSFSISNLEPEDSATYFCLQYGNLLYAFGGGTKLEIKR
Turning to B3, the binding entry was “binds”.
